A short description of the data set: Comparison of plasma concentrations for urethra-closing effect and anti-obesity effect (analysis of Examples 1-9 and literature).

These results are taken from patent US20210052600A1, “THERAPEUTIC AGENTS FOR STRESS URINARY INCONTINENCE AND INCOTINENCE OF FECES” (Takeda Pharmaceutical Company Limited, priority 2017, published 2021).

On to `CC(C)N(C)c1cnc2c(n1)OCCNC2.Cl` [Compound A, N-methyl-N-(1-methylethyl)-6,7,8,9-tetrahydropyrazino[2,3-f][1,4]oxazeine-3-amine], for which the “difference between rat plasma concentration elevating urethral resistance by 10 cmH2O (61 ng/mL) and human plasma concentration (45 ng/mL)” value worked out at 1.4 fold.

Regarding `CC(C)N(C)c1cnc2c(n1)OCCNC2.Cl` [Compound A′, N-methyl-N-(1-methylethyl)-6,7,8,9-tetrahydropyrazino[2,3-f][1,4]oxazeine-3-amine], under “rat, ratio of Example 7 to Example 6 plasma concentrations”, the “fold lower plasma concentration for sufficient urethral resistance increase (LPP10) than that showing greater weight loss by 3.8% in obese rats” value is 11 fold.
